# Record: PubChem BioAssay AID1508597 (Cure First, 2020)
# Assay: 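Knock-downs altering ovarian cancer cell survival with or without PARP inhibitor rucaparib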 (primary screen)
# Cells: human ovarian carcinoma lines grown from tumours: OCI-P5x (papillary serous) and OCI-C5x (clear cell)
# Reagent: siRNA pool against human genes, 1.25 pmol siRNA per well
# Timing: 72 h or 96 h, depending on the cell culture
# Treatment: rucaparib 20 µM (about IC30) or vehicle, present until read-out
# Rucaparib or vehicle: Rucaparib
# Cell line: OCI-P5x (serous)
# Measurement: 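Luminescent ATP-based viability assay read 72 or 96 h after transfection, depending on culture, given as normalised percent viability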
# Scale: viability, normalised: higher = more viable cells remaining
# Rule for the call: 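a well counts as a hit if its normalised viability is under 80 percent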
# Meaning of the calls: active = viability under 80%; inactive = viability 80% or more
# Shown is a random part of the about 2,100 reagents, in one setting of the screen. 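Calls flag viability under 80% in either arm, not effects specific to rucaparib; the reference for percent is not stated.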 A reagent listed more than once was tested more than once; the source does not tell the runs apart. No sequences are given here. Not stated in the record: the 100% reference.
gene knocked down,PubChem SID,technical replicate,"viability, normalised (%)",call
BACC1,SID405526395,1,92.6,inactive
BACC1,SID405526395,1,67.9,active
BACC1,SID405526395,2,55.6,active
BACC1,SID405526395,2,90.1,inactive
BACC1,SID405526395,3,78.7,active
BACC1,SID405526395,3,92.3,inactive
CKM,SID405527371,1,114,inactive
CKM,SID405527371,2,111,inactive
CKM,SID405527371,3,99.7,inactive
SIN3B,SID405527298,1,54.2,active
SIN3B,SID405527298,2,58.5,active
SIN3B,SID405527298,3,53.4,active
PTK2,SID405527632,1,156,inactive
PTK2,SID405527632,2,137,inactive
PTK2,SID405527632,3,125,inactive
XPO5,SID405526635,1,78.2,active
XPO5,SID405526635,2,70.3,active
XPO5,SID405526635,3,78.3,active
ADCK5,SID405527900,1,84.4,inactive
ADCK5,SID405527900,2,83.8,inactive
ADCK5,SID405527900,3,64.4,active
YBX1,SID405526371,1,66,active
YBX1,SID405526371,2,34.7,active
YBX1,SID405526371,3,71.3,active

No new results follow: 3 of the entries above.
gene knocked down,PubChem SID,technical replicate,"viability, normalised (%)",call
XPO5,SID405526635,1,78.2,active
XPO5,SID405526635,2,70.3,active
XPO5,SID405526635,3,78.3,active
